Data set [1] can be described thus: general procedure: Boc solid-phase peptide synthesis; Boc-Pro-O-Resin (chloromethyl-polystyrene/1% divinylbenzene); DCC/1-hydroxybenzotriazole. As to conditions: whole synthesis, scale 4.0 mmol, acetic acid addition salt.
Data set [2] can be described thus: general procedure: Boc solid-phase peptide synthesis; benzhydrylamino-polystyrene-divinylbenzene resin; DCC/1-hydroxybenzotriazole. As to conditions: whole synthesis, scale 0.8 mmol, HF salt.

In US4530920A (Syntex (U.S.A.) Inc., priority 1983, dated 1985) one finds crude mass data, which are given here for two substances.

As for “(pyro)-Glu-His-Trp-Ser-Tyr-D-Deh-Leu-Arg-Pro-NH-CH2 CH3”, in data set [1], the crude mass came to 0.53 g.
In the case of “pGlu-His-Trp-Ser-Tyr-D-Deh-Leu-Arg-Pro-GlyNH2”, the crude mass in data set [2] is 0.8 g.
